# Reference: the supplement of paper PMC12819154, “High-throughput peptide-centric local stability assay extends protein–ligand identification to membrane proteins, tissues and bacteria” (Nature Structural & Molecular Biology, 2025)
# The chains behind the UniProt entries cited, without tags or fusion partners. Where a name states a change or a piece, a line headed by the entry shows the natural chain unless it says otherwise.
# UniProt Q9Y2J0: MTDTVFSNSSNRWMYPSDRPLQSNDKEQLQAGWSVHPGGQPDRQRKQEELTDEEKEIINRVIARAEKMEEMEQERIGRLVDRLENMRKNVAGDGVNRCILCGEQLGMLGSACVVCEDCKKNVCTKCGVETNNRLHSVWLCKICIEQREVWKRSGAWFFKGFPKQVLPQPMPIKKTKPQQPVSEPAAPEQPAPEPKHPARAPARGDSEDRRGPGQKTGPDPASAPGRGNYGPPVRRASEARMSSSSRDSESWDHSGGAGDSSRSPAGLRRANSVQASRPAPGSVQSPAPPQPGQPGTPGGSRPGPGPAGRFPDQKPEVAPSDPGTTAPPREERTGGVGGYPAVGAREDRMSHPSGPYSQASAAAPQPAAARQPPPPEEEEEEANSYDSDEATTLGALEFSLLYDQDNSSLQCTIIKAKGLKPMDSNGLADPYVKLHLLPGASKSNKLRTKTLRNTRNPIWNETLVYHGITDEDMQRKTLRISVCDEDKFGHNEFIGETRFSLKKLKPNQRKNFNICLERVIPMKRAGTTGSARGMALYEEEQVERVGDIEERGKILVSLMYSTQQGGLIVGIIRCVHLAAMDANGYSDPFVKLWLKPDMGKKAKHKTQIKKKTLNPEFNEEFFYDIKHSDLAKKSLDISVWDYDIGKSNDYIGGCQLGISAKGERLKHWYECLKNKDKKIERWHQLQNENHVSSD
# UniProt Q9Y5J7: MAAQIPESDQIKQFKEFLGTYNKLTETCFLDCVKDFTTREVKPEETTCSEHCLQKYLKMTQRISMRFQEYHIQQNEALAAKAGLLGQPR
# UniProt Q9Y496, whole entry: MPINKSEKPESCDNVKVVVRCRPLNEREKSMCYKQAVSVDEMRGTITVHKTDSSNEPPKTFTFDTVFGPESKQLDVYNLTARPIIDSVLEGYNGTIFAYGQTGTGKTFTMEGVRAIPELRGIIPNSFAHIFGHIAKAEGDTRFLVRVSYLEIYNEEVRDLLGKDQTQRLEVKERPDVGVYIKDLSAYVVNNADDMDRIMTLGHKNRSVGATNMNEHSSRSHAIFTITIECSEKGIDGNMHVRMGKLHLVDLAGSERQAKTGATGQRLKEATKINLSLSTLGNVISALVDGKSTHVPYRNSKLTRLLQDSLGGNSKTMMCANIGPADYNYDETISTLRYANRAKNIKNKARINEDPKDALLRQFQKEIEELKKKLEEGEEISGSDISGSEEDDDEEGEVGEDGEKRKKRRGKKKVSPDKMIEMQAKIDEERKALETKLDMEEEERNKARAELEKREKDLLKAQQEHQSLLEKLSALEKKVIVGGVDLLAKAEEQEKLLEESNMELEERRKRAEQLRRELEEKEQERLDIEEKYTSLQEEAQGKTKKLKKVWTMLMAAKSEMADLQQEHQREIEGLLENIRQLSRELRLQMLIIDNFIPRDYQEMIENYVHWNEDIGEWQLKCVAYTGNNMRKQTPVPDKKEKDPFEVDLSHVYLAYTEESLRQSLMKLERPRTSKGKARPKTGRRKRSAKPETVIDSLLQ
# UniProt Q9Y324: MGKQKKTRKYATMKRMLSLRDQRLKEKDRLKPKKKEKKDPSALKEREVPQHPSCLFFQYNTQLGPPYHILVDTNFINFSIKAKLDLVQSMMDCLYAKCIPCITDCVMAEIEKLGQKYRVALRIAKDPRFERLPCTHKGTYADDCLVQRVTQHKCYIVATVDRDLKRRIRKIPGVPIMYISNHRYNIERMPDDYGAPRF
# UniProt Q9Y2V2: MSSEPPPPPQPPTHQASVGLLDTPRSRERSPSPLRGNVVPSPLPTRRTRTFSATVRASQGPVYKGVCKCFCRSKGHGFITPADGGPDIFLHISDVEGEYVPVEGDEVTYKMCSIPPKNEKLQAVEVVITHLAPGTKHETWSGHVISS
# UniProt Q9Y4X0: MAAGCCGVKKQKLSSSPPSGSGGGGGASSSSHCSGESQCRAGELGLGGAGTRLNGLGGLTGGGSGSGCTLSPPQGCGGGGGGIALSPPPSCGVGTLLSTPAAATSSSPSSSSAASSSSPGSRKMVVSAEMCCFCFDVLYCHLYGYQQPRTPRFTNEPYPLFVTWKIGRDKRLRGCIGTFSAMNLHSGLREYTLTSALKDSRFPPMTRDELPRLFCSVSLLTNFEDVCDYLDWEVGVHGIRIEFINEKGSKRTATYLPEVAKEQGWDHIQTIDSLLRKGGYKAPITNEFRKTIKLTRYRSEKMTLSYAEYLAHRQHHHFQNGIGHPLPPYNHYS
# UniProt Q9Y4Z0: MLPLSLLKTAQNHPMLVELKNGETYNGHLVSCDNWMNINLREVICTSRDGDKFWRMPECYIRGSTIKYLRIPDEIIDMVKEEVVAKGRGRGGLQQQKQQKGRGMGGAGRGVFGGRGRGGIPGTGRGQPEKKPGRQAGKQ
# UniProt Q9Y6G5, whole entry: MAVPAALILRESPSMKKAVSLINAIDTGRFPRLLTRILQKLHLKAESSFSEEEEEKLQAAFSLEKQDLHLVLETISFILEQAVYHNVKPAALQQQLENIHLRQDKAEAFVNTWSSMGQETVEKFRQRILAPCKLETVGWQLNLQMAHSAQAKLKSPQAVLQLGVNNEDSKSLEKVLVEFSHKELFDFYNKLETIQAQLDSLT
# Some of the results follow. Small differences around the control level are noise.
# Compound: Cc1nc(Nc2ncc(C(=O)Nc3c(C)cccc3Cl)s2)cc(N2CCN(CCO)CC2)n1 [dasatinib]
# Assay: log2 fold change of tryptic peptide abundance, ligand vs vehicle (limited proteolysis) (log2 ratio); higher = more trypsin-susceptible (destabilized)
# Conditions: ligand concentration: 5 uM; sample: K562 cleared lysate
row,Target,log2 fold change
1,"UniProt Q9Y2J0 (peptide sequence: KTKPQQPVSEPAAPEQPAPEPK, peptide start residue: 174)",0.0377
2,"TIMM9 (peptide sequence: FQEYHIQQNEALAAK, peptide start residue: 67) (UniProt Q9Y5J7)",-0.129
3,"KIF3A (peptide sequence: KVIVGGVDLLAK, peptide start residue: 478) (UniProt Q9Y496)",-0.625
4,"FCF1 (peptide sequence: MPDDYGAPR, peptide start residue: 189) (UniProt Q9Y324)",0.473
5,"CARHSP1 (peptide sequence: HETWSGHVISS, peptide start residue: 137) (UniProt Q9Y2V2)",0.0595
6,"AMMECR1 (peptide sequence: IEFINEK, peptide start residue: 241) (UniProt Q9Y4X0)",0.18
7,"MRPS23 (peptide sequence: EVPQDQHLEAPADQSK, peptide start residue: 170) (UniProt Q9Y3D9)",0.459
8,"LSM4 (peptide sequence: IPDEIIDMVKEEVVAK, peptide start residue: 71) (UniProt Q9Y4Z0)",-0.39
9,"COMMD10 (peptide sequence: AVSLINAIDTGRFPR, peptide start residue: 18) (UniProt Q9Y6G5)",-0.286

# Excerpt, nos. 7–8
row,Target,log2 fold change
7,"MRPS23 (peptide sequence: EVPQDQHLEAPADQSK, peptide start residue: 170) (UniProt Q9Y3D9)",0.459
8,"LSM4 (peptide sequence: IPDEIIDMVKEEVVAK, peptide start residue: 71) (UniProt Q9Y4Z0)",-0.39
